PubChem BioAssay AID1439 (NMMLSC, 2008)
Among all 220,000 compounds or so, about 770 (0.35%) were called active. Inconclusive results, whose numbers are uncertain, are shown with a selection of clear calls. Cut-off read from the data, not from the text of the source: active = binding response below about 49% or above about 150%; inconclusive = no clear call, values can overlap the other calls; inactive = in between.

Protein sequences, listed by entry. Tags and fused reporters are not part of them.
UniProt P09471, whole entry, looked up: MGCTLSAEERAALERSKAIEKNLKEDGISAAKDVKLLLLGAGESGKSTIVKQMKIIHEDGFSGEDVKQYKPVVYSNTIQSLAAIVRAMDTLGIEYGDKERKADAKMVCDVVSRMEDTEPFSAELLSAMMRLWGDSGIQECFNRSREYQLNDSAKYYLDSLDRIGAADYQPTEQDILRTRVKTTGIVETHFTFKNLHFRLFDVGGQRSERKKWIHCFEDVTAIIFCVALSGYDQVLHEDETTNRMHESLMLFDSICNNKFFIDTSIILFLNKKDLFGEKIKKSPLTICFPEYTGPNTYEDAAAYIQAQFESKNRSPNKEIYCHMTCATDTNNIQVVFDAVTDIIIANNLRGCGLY

target: Guanine nucleotide-binding protein G(o) subunit alpha (Homo sapiens) (UniProt P09471); experiment: RGS7-Galphao binding modulators, primary screen, biochemical, multiplexed bead flow cytometry (AID 1439); conditions: at 10 µM, actives lie on both sides;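 note: fluorescent Galphao held in activated GDP-AlF4 state binding bead-coupled RGS7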

**Q.** With `CN(C)/C=C1\C=C2C(=O)c3ccccc3N2C1=O` as the compound, how does the binding response (% of control) read?
**A.** The binding response (% of control) was inconclusive: 446%.

**Q.** For `CCC(C)[C@H](NC(=O)Nc1ccc(C)cc1C)C(=O)O` (stereo not given in full), which binding response (% of control) is on record?
**A.** Its binding response (% of control) is inconclusive: 47.5%.

**Q.** For `O=C1SC(Cc2ccccc2)C(=O)N1c1ccccc1` (stereo not given), which binding response (% of control) is on record?
**A.** The binding response (% of control) was inconclusive: 77%.

**Q.** Which binding response (% of control) does the source give for `O=C(NC1CCS(=O)(=O)C1)C1C2CC3CC(C2)CC1C3` (stereo not given) here?
**A.** Its binding response (% of control) is inactive: 119%.

**Q.** `NC(=S)N/N=C/c1coc2ccc(F)cc2c1=O` was tested. Which binding response (% of control) did it give?
**A.** The binding response (% of control) was inconclusive: 94.1%.

**Q.** How did the binding response (% of control) turn out when `C1CCN(c2c3c(nc4nnnn24)CCCC3)CC1` was run?
**A.** Its binding response (% of control) is inactive: 106%.

**Q.** Which binding response (% of control) does the source give for `CNC(=S)N1N=C2c3ccccc3CCC2C1c1ccccc1Cl` (stereo not given) here?
**A.** Its binding response (% of control) is inconclusive: 28.8%.

**Q.** How did the binding response (% of control) turn out when `CCOC(=O)C1CCCN(C(=O)COc2ccc(S(=O)(=O)N(CC)c3ccccc3)cc2)C1` (stereo not given) was run?
**A.** The binding response (% of control) was inactive: 94.5%.

**Q.** How did the binding response (% of control) turn out when `CCOC(=O)N1CCC(NC(=O)CCc2nc(-c3ccccc3F)no2)CC1` was run?
**A.** The binding response (% of control) was inactive: 97.4%.

**Q.** `S=c1[nH]ncn2c1cc1oc3ccccc3c12` was tested. Which binding response (% of control) did it give?
**A.** Its binding response (% of control) is inconclusive: 106%.

**Q.** `O=C(Nc1ccccc1)Nc1nnc(COc2ccccc2F)s1` was tested. Which binding response (% of control) did it give?
**A.** The binding response (% of control) was inconclusive: 104%.

**Q.** For `Cn1cc(Br)c(-c2cccc(NC(=O)CC(C)(C)CC(=O)O)c2)n1`, which binding response (% of control) is on record?
**A.** Its binding response (% of control) is inconclusive: 56.3%.

**Q.** For `CC(C)(C)NC(=O)c1ccc(Cn2cc(C(F)(F)F)ccc2=O)cc1`, which binding response (% of control) is on record?
**A.** The binding response (% of control) was inconclusive: 106%.

**Q.** How did the binding response (% of control) turn out when `Cc1cc(C)n2cc(CSc3nc4ccccc4[nH]3)nc2n1` was run?
**A.** The binding response (% of control) was inactive: 101%.

**Q.** `COc1cccc(/C=C/C(=O)Nc2ccc(N3CCOCC3)cc2)c1OC` was tested. Which binding response (% of control) did it give?
**A.** The binding response (% of control) was inconclusive: 94.3%.

**Q.** With `OC(COc1cccc2ccccc12)CN1CCN(c2ccc(Cl)cc2)CC1` (stereo not given) as the compound, how does the binding response (% of control) read?
**A.** The binding response (% of control) was inconclusive: 89.7%.

**Q.** Which binding response (% of control) does the source give for `COc1ccc(/C=N/NC(=O)CSCC(=O)Nc2ccccc2)cc1` here?
**A.** Its binding response (% of control) is inconclusive: 29.6%.

**Q.** With `CCc1sc(NC(=O)C(C)C)nc1-c1ccccc1` as the compound, how does the binding response (% of control) read?
**A.** Its binding response (% of control) is inconclusive: 104%.

**Q.** `COCCNC(=S)N/N=C/c1ccc(-c2ccc([N+](=O)[O-])cc2)o1` was tested. Which binding response (% of control) did it give?
**A.** The binding response (% of control) was inconclusive: 160%.

**Q.** For `Cc1ccc(CN2CCN(Cc3cccc4nccnc34)CC2CCO)cc1` (stereo not given), which binding response (% of control) is on record?
**A.** Its binding response (% of control) is inconclusive: 131%.

**Q.** `CCOc1ncccc1C(=O)Nc1ccc(Cl)c(S(=O)(=O)N2CCCC2)c1` was tested. Which binding response (% of control) did it give?
**A.** Its binding response (% of control) is inconclusive: 101%.

**Q.** With `Cc1cccc(Cn2nc(C)cc2NC(=O)Cn2cc([N+](=O)[O-])cn2)c1` as the compound, how does the binding response (% of control) read?
**A.** The binding response (% of control) was inconclusive: 106%.

**Q.** For `Cc1onc(-c2c(Cl)cccc2Cl)c1COC(=O)c1ccc(Cl)cc1`, which binding response (% of control) is on record?
**A.** Its binding response (% of control) is inconclusive: 216%.

**Q.** Which binding response (% of control) does the source give for `CC1(c2nnc(-c3ccncc3)o2)CC(c2ccc(F)cc2)=NO1` (stereo not given) here?
**A.** The binding response (% of control) was inconclusive: 109%.

**Q.** Which binding response (% of control) does the source give for `C/C(CCC1CC(C)OC1=O)=N\NC(N)=S` (stereo not given) here?
**A.** The binding response (% of control) was inconclusive: 79.7%.

**Q.** With `CCc1ccccc1NC(=O)CN(C)C(=O)Cn1cc(C(F)(F)F)cc(Cl)c1=O` as the compound, how does the binding response (% of control) read?
**A.** The binding response (% of control) was inactive: 104%.

**Q.** How did the binding response (% of control) turn out when `CC12CN3CC(C)(CN(C1)C3c1ccc(Cl)cc1)C2` (stereo not given) was run?
**A.** The binding response (% of control) was inconclusive: 223%.

**Q.** For `COCCn1cnc2c(c1=O)c1nc3ccccc3nc1n2/N=C/c1ccc(OC)c(OC)c1`, which binding response (% of control) is on record?
**A.** The binding response (% of control) was inconclusive: 111%.

**Q.** With `CCCc1nc2oc3ccccc3c(=O)c2c(=O)n1-c1ccc(C)cc1` as the compound, how does the binding response (% of control) read?
**A.** Its binding response (% of control) is inconclusive: 100%.

**Q.** How did the binding response (% of control) turn out when `Cc1cccc(C(=O)Nc2ccc(N3CCN(c4ccc(C(F)(F)F)cn4)CC3)nc2)c1` was run?
**A.** Its binding response (% of control) is inconclusive: 160%.

**Q.** With `CN(/N=C/c1cccnc1)c1cnc2ccccc2n1` as the compound, how does the binding response (% of control) read?
**A.** Its binding response (% of control) is inactive: 100%.

**Q.** How did the binding response (% of control) turn out when `C/C(=N/NC(=O)c1ccoc1C)c1cccc(NC(=O)C2CC2)c1` was run?
**A.** Its binding response (% of control) is inactive: 101%.

**Q.** How did the binding response (% of control) turn out when `Nc1nc(=S)c2ncn(C3OC(CO)C(O)C3O)c2[nH]1` (stereo not given) was run?
**A.** The binding response (% of control) was inconclusive: 107%.

**Q.** How did the binding response (% of control) turn out when `C=CCSc1nnc(NC(=O)Cn2cnc3c2c(=O)n(C)c(=O)n3C)s1` was run?
**A.** Its binding response (% of control) is inconclusive: 115%.

**Q.** `CCC(=O)NCCCNc1nc2c(C)cccc2cc1C#N` was tested. Which binding response (% of control) did it give?
**A.** The binding response (% of control) was inconclusive: 74.4%.

**Q.** For `Cc1cc(NC(=O)CSc2n[nH]c(=O)[nH]c2=O)ccc1Br`, which binding response (% of control) is on record?
**A.** The binding response (% of control) was inconclusive: 99.6%.

**Q.** For `Cc1cc(-c2nc(C)c(C(=O)NNS(=O)(=O)c3ccccc3)s2)no1`, which binding response (% of control) is on record?
**A.** Its binding response (% of control) is inconclusive: 14.9%.

**Q.** How did the binding response (% of control) turn out when `O=c1c2cc(NC(=S)NC3CC3)ccc2nc2n1CCCCC2` was run?
**A.** Its binding response (% of control) is inconclusive: 108%.

**Q.** `CCOc1ccc(N2C(=O)CN(C)C2=S)cc1` was tested. Which binding response (% of control) did it give?
**A.** Its binding response (% of control) is inactive: 102%.

**Q.** How did the binding response (% of control) turn out when `Cc1cc(NC(=O)CSc2nnc3ccccn23)no1` was run?
**A.** Its binding response (% of control) is inconclusive: 85.3%.

**Q.** `CCC1=NN(C(=O)CCc2ccc3c(c2)OCO3)C(O)(C(F)(F)F)C1` (stereo not given) was tested. Which binding response (% of control) did it give?
**A.** Its binding response (% of control) is inactive: 102%.

**Q.** With `Cc1nc2ccccn2c1-c1ccnc(SCc2ccc(Cl)cc2)n1` as the compound, how does the binding response (% of control) read?
**A.** The binding response (% of control) was inconclusive: -2.47%.

**Q.** For `O=C(NC1CCCc2ccccc21)c1cccnc1` (stereo not given), which binding response (% of control) is on record?
**A.** Its binding response (% of control) is inactive: 103%.

**Q.** For `Nc1nc(N)c2c(ccc3nccc32)[nH]1`, which binding response (% of control) is on record?
**A.** Its binding response (% of control) is inconclusive: 131%.

**Q.** For `Cc1cc(C)c2c(=O)n(CC(=O)NC3CCCC3)sc2n1`, which binding response (% of control) is on record?
**A.** The binding response (% of control) was inconclusive: 218%.
